Experimental data from patent US8344163B2, “Nitrile compound and its use for control of arthropod pest” (Sumitomo Chemical Company, Limited, priority 2008, dated 2013).
Some of these results come from one statement about several compounds together. For at least one compound, name, drawing or mass did not settle the structure.

What was measured:
Type in all cases: in vivo
Musca domestica = assay: Test Example 4: filter paper with sucrose bait, Musca domestica female imagoes; details: 500 ppm active ingredient, 0.7 ml on filter paper; 10 female imagoes; after 24 hours
Culex pipiens pallens = assay: Test Example 6: Culex pipiens pallens larvae in treated water; details: active ingredient concentration 3.5 ppm in water; 20 last-instar larvae; after 1 day
[1] = system: Haemaphysalis longicornis; assay: Test Example 7: treated filter paper pouch, Haemaphysalis longicornis young mites; details: 500 mg/m^2 on filter paper; non-blood sucking young mites, 10 per group; after 2 days

## CC(C)(C)ON=C1CCC(CC(C#N)(C#N)CCC(F)(F)F)CC1 (centres unmarked) [(10)]
Musca domestica
  pest death rate: ≥ 90%

## C#CC1(O)CCC(CC(C#N)(C#N)CCC(F)(F)F)CC1 (centres unmarked) [(2)]
Musca domestica
  pest death rate: ≥ 90%

## C#CC1(F)CCC(CC(C#N)(C#N)CCC(F)(F)F)CC1 (centres unmarked) [(3)]
Culex pipiens pallens
  pest death rate: ≥ 95%
Musca domestica
  pest death rate: ≥ 90%
[1]
  pest death rate: ≥ 90%

## CON=C1CCC(CC(C#N)(C#N)CCC(F)(F)F)CC1 (centres unmarked) [(8)]
Culex pipiens pallens
  pest death rate: ≥ 95%
Musca domestica
  pest death rate: ≥ 90%

## C#CC1(F)CCC(CCC(C#N)(C#N)CCC(F)(F)F)CC1 (centres unmarked) [(7)]
Musca domestica
  pest death rate: ≥ 90%

## C#C[C@H]1CC[C@@H](CC(C#N)(C#N)CCC(F)(F)F)CC1 [(1c)]
Culex pipiens pallens
  pest death rate: ≥ 95%
Musca domestica
  pest death rate: ≥ 90%
[1]
  pest death rate: ≥ 90%

## CCON=C1CCC(CC(C#N)(C#N)CCC(F)(F)F)CC1 (centres unmarked) [(9)]
Culex pipiens pallens
  pest death rate: ≥ 95%
Musca domestica
  pest death rate: ≥ 90%

## C#CC12CCC(CC(C#N)(C#N)CCC(F)(F)F)CC1O2 (centres unmarked) [(4)]
Culex pipiens pallens
  pest death rate: ≥ 95%
Musca domestica
  pest death rate: ≥ 90%
[1]
  pest death rate: ≥ 90%

## C=CCON=C1CCC(CC(C#N)(C#N)CCC(F)(F)F)CC1 (centres unmarked) [(11)]
Culex pipiens pallens
  pest death rate: ≥ 95%

## C#C[C@H]1CC[C@H](CC(C#N)(C#N)CCC(F)(F)F)CC1 [(1t)]
Culex pipiens pallens
  pest death rate: ≥ 95%
Musca domestica
  pest death rate: ≥ 90%
[1]
  pest death rate: ≥ 90%
